# From the supplement of paper PMC7666118
# Protein sequences, listed by entry. Tags and fused reporters are not part of them. Lines headed by an entry give the natural chain unless they say otherwise; changes in a name come on top.
# UniProt P04792, whole entry: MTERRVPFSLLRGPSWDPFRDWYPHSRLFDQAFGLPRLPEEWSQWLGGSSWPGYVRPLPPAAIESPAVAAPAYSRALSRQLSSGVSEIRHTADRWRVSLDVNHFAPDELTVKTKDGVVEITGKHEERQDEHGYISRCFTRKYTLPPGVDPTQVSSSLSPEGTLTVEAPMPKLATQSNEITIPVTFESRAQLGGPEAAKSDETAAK
# UniProt Q27J81, whole entry: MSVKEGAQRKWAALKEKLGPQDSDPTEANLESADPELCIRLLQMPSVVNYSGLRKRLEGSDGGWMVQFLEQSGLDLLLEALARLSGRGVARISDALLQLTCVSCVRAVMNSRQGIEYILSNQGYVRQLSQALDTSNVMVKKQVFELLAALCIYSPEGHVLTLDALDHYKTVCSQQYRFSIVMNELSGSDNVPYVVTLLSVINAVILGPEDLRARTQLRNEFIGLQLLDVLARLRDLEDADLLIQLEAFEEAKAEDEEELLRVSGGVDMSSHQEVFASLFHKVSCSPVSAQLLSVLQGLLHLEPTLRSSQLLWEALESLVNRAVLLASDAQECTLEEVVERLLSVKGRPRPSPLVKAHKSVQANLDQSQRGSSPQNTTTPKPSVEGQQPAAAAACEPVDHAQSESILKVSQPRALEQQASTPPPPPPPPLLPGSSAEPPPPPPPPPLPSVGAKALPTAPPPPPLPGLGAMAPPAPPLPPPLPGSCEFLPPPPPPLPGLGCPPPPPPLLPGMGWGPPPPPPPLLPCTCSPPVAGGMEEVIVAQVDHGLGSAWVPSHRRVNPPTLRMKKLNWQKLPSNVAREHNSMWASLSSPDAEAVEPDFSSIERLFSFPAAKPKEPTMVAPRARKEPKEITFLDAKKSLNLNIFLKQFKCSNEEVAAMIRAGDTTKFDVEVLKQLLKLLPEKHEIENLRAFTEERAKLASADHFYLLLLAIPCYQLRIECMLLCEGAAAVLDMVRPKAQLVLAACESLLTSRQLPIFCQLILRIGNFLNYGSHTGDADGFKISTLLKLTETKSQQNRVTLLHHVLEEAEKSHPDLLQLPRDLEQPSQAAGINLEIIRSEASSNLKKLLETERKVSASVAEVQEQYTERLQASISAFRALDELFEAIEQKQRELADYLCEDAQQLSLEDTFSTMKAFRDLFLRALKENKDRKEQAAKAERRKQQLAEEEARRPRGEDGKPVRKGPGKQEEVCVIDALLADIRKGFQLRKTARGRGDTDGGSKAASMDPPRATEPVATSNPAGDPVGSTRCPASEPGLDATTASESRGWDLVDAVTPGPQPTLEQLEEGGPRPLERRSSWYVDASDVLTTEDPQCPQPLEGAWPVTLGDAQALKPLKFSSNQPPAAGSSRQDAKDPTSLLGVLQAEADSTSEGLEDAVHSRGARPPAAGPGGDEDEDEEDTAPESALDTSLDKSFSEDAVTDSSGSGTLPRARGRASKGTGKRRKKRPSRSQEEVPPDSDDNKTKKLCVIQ
# UniProt Q14657: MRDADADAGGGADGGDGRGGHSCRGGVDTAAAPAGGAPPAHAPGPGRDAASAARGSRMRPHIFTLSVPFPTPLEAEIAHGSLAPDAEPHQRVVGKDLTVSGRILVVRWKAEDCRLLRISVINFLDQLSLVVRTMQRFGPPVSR
# UniProt Q9Y664: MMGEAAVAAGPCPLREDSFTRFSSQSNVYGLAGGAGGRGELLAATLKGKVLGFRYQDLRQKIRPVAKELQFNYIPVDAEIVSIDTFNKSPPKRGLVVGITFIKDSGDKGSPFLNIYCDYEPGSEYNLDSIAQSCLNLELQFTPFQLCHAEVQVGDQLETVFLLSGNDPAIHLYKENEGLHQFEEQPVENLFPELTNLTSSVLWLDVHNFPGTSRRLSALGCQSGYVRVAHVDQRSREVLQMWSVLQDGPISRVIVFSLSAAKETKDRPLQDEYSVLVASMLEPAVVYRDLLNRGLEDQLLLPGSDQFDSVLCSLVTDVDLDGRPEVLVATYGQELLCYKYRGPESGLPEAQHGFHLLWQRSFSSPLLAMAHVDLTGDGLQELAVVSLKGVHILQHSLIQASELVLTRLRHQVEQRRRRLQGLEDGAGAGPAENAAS
# UniProt Q96AT1: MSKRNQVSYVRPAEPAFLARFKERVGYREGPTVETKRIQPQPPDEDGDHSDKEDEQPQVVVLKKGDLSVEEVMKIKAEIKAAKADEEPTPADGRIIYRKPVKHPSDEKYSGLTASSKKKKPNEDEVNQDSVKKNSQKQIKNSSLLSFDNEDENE
# UniProt Q9P0J7: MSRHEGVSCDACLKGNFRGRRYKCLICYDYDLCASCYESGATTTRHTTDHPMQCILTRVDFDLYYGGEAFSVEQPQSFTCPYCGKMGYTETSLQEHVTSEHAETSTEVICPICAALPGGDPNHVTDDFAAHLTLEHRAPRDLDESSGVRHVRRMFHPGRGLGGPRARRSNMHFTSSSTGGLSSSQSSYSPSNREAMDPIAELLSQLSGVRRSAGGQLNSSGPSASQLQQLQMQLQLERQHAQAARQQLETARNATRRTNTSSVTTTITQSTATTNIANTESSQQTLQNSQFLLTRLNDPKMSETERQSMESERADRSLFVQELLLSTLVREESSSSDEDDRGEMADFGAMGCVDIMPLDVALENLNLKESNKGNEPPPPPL
# UniProt P20700: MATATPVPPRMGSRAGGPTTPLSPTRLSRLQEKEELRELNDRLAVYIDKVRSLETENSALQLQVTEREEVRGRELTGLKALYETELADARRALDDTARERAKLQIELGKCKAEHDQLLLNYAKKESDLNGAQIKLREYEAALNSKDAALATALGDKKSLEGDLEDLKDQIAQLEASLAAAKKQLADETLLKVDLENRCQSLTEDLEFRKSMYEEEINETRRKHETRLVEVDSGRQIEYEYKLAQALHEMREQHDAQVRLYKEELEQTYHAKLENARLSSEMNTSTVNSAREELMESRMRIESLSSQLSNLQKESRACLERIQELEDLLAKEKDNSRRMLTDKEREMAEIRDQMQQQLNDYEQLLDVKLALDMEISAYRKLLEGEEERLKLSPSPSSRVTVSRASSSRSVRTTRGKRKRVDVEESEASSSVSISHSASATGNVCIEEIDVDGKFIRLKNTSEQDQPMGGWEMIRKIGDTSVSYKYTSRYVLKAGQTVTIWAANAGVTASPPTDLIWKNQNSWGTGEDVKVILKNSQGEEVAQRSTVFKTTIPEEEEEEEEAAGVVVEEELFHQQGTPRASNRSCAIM
# UniProt Q92613: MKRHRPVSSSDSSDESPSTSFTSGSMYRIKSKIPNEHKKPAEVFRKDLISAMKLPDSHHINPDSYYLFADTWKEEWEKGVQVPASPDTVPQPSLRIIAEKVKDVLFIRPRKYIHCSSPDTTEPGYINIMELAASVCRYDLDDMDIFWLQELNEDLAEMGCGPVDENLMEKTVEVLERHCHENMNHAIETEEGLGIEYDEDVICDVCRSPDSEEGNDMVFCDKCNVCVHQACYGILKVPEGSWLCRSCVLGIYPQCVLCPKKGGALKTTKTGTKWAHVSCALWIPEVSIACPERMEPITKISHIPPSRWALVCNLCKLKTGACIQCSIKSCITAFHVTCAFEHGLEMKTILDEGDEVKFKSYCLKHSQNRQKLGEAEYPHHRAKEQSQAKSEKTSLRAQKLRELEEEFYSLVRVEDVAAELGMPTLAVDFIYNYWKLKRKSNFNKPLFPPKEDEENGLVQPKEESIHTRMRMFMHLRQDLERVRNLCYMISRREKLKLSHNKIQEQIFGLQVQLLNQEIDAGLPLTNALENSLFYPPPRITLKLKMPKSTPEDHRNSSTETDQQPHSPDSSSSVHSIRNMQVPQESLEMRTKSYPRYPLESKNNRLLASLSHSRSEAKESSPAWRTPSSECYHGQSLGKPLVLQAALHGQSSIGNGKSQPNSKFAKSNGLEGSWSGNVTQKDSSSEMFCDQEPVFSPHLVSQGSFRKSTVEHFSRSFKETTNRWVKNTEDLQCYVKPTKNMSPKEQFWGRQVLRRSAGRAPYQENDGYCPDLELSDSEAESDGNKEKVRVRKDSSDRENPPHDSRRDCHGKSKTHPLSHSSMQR
# UniProt Q92902: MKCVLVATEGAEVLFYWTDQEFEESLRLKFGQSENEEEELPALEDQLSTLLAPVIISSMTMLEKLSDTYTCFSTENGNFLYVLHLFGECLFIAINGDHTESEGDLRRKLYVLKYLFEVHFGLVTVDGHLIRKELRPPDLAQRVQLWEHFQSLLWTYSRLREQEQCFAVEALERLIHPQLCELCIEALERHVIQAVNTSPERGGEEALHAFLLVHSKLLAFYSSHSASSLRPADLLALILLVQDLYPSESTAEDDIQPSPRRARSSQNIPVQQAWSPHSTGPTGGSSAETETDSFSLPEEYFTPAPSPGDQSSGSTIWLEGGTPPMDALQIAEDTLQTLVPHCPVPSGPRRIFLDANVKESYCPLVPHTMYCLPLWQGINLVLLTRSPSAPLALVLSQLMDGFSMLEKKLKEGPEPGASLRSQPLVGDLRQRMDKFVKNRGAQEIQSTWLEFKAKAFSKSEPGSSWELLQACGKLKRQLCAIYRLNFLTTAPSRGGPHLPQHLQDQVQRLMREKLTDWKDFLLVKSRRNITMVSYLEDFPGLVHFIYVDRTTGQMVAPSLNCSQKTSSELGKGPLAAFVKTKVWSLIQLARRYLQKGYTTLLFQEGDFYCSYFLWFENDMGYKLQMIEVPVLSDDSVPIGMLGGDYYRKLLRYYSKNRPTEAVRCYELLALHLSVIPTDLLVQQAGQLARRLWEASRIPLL
# UniProt P06239: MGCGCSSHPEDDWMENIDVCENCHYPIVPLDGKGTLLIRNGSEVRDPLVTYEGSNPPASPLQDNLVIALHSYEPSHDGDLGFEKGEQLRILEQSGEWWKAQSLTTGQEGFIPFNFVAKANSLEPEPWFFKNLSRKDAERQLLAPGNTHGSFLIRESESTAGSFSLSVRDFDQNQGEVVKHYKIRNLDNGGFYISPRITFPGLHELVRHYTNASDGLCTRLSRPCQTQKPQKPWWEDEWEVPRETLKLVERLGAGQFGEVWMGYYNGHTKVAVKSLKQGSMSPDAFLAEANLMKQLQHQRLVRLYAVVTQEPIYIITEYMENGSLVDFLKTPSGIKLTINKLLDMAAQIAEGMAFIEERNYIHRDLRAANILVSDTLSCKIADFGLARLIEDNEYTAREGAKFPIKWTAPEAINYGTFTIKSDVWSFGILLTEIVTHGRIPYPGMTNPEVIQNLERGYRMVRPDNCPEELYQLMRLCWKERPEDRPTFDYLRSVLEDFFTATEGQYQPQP
# UniProt Q6MZP7: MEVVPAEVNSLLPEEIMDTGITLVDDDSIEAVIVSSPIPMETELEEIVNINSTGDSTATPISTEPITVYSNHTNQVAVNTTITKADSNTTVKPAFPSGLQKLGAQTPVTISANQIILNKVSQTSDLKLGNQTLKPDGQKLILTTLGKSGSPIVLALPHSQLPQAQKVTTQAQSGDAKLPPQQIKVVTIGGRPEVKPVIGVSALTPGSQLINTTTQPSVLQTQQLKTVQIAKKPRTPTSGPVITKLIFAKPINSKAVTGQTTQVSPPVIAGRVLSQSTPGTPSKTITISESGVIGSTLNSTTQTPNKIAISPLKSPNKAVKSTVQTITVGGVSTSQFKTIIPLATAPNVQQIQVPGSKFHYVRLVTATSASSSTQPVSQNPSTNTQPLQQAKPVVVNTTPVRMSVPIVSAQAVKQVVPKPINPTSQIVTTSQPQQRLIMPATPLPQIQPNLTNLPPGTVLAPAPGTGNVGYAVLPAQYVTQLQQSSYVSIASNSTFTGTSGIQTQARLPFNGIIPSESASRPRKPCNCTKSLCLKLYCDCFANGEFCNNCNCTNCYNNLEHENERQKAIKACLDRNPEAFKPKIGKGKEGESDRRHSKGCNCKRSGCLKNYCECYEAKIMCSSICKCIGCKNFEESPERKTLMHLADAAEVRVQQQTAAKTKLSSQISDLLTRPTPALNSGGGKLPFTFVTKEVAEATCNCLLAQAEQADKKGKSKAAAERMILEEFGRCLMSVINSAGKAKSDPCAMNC
# UniProt Q9NWZ3, whole entry: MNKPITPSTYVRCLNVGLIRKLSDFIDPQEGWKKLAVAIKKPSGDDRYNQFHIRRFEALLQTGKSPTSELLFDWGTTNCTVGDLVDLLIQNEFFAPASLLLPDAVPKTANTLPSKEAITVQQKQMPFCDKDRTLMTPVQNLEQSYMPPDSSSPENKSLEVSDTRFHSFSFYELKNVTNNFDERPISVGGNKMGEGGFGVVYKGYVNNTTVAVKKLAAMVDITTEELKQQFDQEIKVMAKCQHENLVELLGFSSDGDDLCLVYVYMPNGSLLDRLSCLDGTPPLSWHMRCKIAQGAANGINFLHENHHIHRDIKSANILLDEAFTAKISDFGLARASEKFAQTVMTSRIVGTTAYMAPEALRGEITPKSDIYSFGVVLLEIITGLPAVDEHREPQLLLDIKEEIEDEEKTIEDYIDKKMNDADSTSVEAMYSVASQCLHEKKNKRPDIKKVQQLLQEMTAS
# UniProt Q3ZCW2: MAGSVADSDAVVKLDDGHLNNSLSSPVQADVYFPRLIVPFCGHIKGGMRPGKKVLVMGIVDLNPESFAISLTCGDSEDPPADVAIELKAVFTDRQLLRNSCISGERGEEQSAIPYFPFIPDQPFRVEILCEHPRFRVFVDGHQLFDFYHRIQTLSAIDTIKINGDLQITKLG
# Some of the results follow.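 The calls were made as follows: active = dose-dependent thermal stabilisation significant by F-test of dose-response against flat model at 10% FDR; inactive = not significant.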
# Compound: Nc1nc2c(ncn2[C@@H]2O[C@H](COP(=O)(O)OP(=O)(O)OP(=O)(O)O)[C@@H](O)[C@H]2O)c(=O)[nH]1
# Test: dose-dependent thermal stabilisation call (2D-TPP, DLPTP, 10% FDR) (binary (1 = stabilised)); higher = stabilised by the compound
# Settings: system: Jurkat gel-filtered lysate; concentration range 1-500 µM
row,Target,dose-dependent thermal stabilisation call
1,IKZF2 (UniProt Q9UKS7),inactive: 0
2,HOMER2 (UniProt Q9NSB8),inactive: 0
3,KPNA6 (UniProt O60684),active: 1
4,HSPB1 (UniProt P04792),inactive: 0
5,INF2 (UniProt Q27J81),inactive: 0
6,JUND (UniProt P17535),inactive: 0
7,ITIH2 (UniProt P19823),inactive: 0
8,LAGE3 (UniProt Q14657),inactive: 0
9,IDE (UniProt P14735),inactive: 0
10,IST1 (UniProt P53990),inactive: 0
11,IPO5 (UniProt O00410),inactive: 0
12,ITFG2 (UniProt Q969R8),inactive: 0
13,KPTN (UniProt Q9Y664),inactive: 0
14,KIAA1143 (UniProt Q96AT1),inactive: 0
15,HSD17B10 (UniProt Q99714),active: 1
16,KCMF1 (UniProt Q9P0J7),inactive: 0
17,LMNB1 (UniProt P20700),inactive: 0
18,HSPA8 (UniProt P11142),inactive: 0

row,Target,dose-dependent thermal stabilisation call
1,KAZN (UniProt Q674X7),inactive: 0
2,ITSN2 (UniProt Q9NZM3),inactive: 0
3,ING3 (UniProt Q9NXR8),inactive: 0
4,KIAA0907 (UniProt Q7Z7F0),inactive: 0
5,JADE3 (UniProt Q92613),inactive: 0
6,IRF2BPL (UniProt Q9H1B7),inactive: 0
7,ILF2 (UniProt Q12905),inactive: 0
8,IFT27 (UniProt Q9BW83),active: 1
9,HPS1 (UniProt Q92902),inactive: 0
10,LCK (UniProt P06239),active: 1
11,LIN54 (UniProt Q6MZP7),inactive: 0
12,KBTBD7 (UniProt Q8WVZ9),inactive: 0
13,INTS5 (UniProt Q6P9B9),inactive: 0
14,LEF1 (UniProt Q9UJU2),active: 1
15,IRAK4 (UniProt Q9NWZ3),inactive: 0
16,LCP2 (UniProt Q13094),inactive: 0
17,LGALSL (UniProt Q3ZCW2),inactive: 0
18,KMT2C (UniProt Q8NEZ4),inactive: 0

# 6 neighbouring entries from above:
row,Target,dose-dependent thermal stabilisation call
13,INTS5 (UniProt Q6P9B9),inactive: 0
14,LEF1 (UniProt Q9UJU2),active: 1
15,IRAK4 (UniProt Q9NWZ3),inactive: 0
16,LCP2 (UniProt Q13094),inactive: 0
17,LGALSL (UniProt Q3ZCW2),inactive: 0
18,KMT2C (UniProt Q8NEZ4),inactive: 0
